Measurements as given in the supplement of paper PMC4604168 (melanoma cell lines).
This is one part of the list. Repeats are few or missing, and single values can be far off.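 Imaging used 1,536-well plates; nuclei positive for cleaved PARP by antibody were divided by total DNA-stained nuclei to yield the apoptosis fraction. Doses for screening kept most cells viable, and cell lines differ markedly in resting and induced cleaved-PARP levels.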

The compounds below were run on RVH-421 (assay: cleaved PARP positive nuclei fraction relative to DMSO control; melanoma cells; higher = more apoptosis). Settings: library dose: low library concentration; 72 h.

Compared with `CO[C@H]1C[C@@H]2CC[C@@H](C)[C@@](O)(O2)C(=O)C(=O)N2CCCC[C@H]2C(=O)O[C@H]([C@H](C)C[C@@H]2CC[C@@H](OCCO)[C@H](OC)C2)CC(=O)[C@H](C)/C=C(\C)[C@@H](O)[C@@H](OC)C(=O)[C@H](C)C[C@H](C)/C=C/C=C/C=C/1C` [everolimus] + C=CCn1c(=O)c2cnc(Nc3ccc(N4CCN(C)CC4)cc3)nc2n1-c1cccc(C(C)(C)O)n1 [MK1775] (first compound 0.02 µM, partner dose 0.02 µM), `Cn1c(=O)n(-c2ccc(C(C)(C)C#N)cc2)c2c3cc(-c4cnc5ccccc5c4)ccc3ncc21` + CN1CCN(c2ccc3nc(-c4c(N)c5c(F)cccc5[nH]c4=O)[nH]c3c2)CC1 [Dovitinib] (first compound 0.004 µM, partner dose 0.1 µM) is higher in “cleaved PARP positive nuclei fraction” value: 65.8% for the first, 931% for the second.

`CO[C@H]1C[C@@H]2CC[C@@H](C)[C@@](O)(O2)C(=O)C(=O)N2CCCC[C@H]2C(=O)O[C@H]([C@H](C)C[C@@H]2CC[C@@H](OCCO)[C@H](OC)C2)CC(=O)[C@H](C)/C=C(\C)[C@@H](O)[C@@H](OC)C(=O)[C@H](C)C[C@H](C)/C=C/C=C/C=C/1C` [everolimus] + Nc1ncn([C@H]2C[C@H](O)[C@@H](CO)O2)c(=O)n1 [decitabine] (first compound 0.02 µM, partner dose 0.1 µM) was tested, and the “cleaved PARP positive nuclei fraction” value was 343%.
With `CO[C@H]1C[C@@H]2CC[C@@H](C)[C@@](O)(O2)C(=O)C(=O)N2CCCC[C@H]2C(=O)O[C@H]([C@H](C)C[C@@H]2CC[C@@H](OCCO)[C@H](OC)C2)CC(=O)[C@H](C)/C=C(\C)[C@@H](O)[C@@H](OC)C(=O)[C@H](C)C[C@H](C)/C=C/C=C/C=C/1C` [everolimus] + CC(C)(C)c1cnc(CSc2cnc(NC(=O)C3CCNCC3)s2)o1 [SNS-032] (first compound 0.02 µM, partner dose 0.01 µM) the “cleaved PARP positive nuclei fraction” value was 37.5%.
For `CO[C@H]1C[C@@H]2CC[C@@H](C)[C@@](O)(O2)C(=O)C(=O)N2CCCC[C@H]2C(=O)O[C@H]([C@H](C)C[C@@H]2CC[C@@H](OCCO)[C@H](OC)C2)CC(=O)[C@H](C)/C=C(\C)[C@@H](O)[C@@H](OC)C(=O)[C@H](C)C[C@H](C)/C=C/C=C/C=C/1C` [everolimus] + Cc1cc([N+](=O)[O-])ccc1NS(=O)(=O)c1cc(Cl)ccc1Cl [FH535] (first compound 0.02 µM, partner dose 1 µM), the “cleaved PARP positive nuclei fraction” value was 42.6%.
With `CO[C@H]1C[C@@H]2CC[C@@H](C)[C@@](O)(O2)C(=O)C(=O)N2CCCC[C@H]2C(=O)O[C@H]([C@H](C)C[C@@H]2CC[C@@H](OCCO)[C@H](OC)C2)CC(=O)[C@H](C)/C=C(\C)[C@@H](O)[C@@H](OC)C(=O)[C@H](C)C[C@H](C)/C=C/C=C/C=C/1C` [everolimus] + O=C(O)c1ccc(-c2c[nH]c3ncc(-c4ccccc4)cc23)cc1C1CCCC1 [GSK650394] (first compound 0.02 µM, partner dose 0.16 µM) the “cleaved PARP positive nuclei fraction” value was 96.8%.
With `CO[C@H]1C[C@@H]2CC[C@@H](C)[C@@](O)(O2)C(=O)C(=O)N2CCCC[C@H]2C(=O)O[C@H]([C@H](C)C[C@@H]2CC[C@@H](OCCO)[C@H](OC)C2)CC(=O)[C@H](C)/C=C(\C)[C@@H](O)[C@@H](OC)C(=O)[C@H](C)C[C@H](C)/C=C/C=C/C=C/1C` [everolimus] + COc1ccc(COc2ccc(Cc3cnc(N)nc3N)cc2OC)cc1 [GW2580] (first compound 0.02 µM, partner dose 1 µM) the “cleaved PARP positive nuclei fraction” value was 31.2%.
With `CO[C@H]1C[C@@H]2CC[C@@H](C)[C@@](O)(O2)C(=O)C(=O)N2CCCC[C@H]2C(=O)O[C@H]([C@H](C)C[C@@H]2CC[C@@H](OCCO)[C@H](OC)C2)CC(=O)[C@H](C)/C=C(\C)[C@@H](O)[C@@H](OC)C(=O)[C@H](C)C[C@H](C)/C=C/C=C/C=C/1C` [everolimus] + O=S(=O)(c1ccccc1)N(CC(F)(F)F)c1ccc(C(O)(C(F)(F)F)C(F)(F)F)cc1 [T0901317] (first compound 0.02 µM, partner dose 1.4 µM) the “cleaved PARP positive nuclei fraction” value was 130%.
With `CO[C@H]1C[C@@H]2CC[C@@H](C)[C@@](O)(O2)C(=O)C(=O)N2CCCC[C@H]2C(=O)O[C@H]([C@H](C)C[C@@H]2CC[C@@H](OCCO)[C@H](OC)C2)CC(=O)[C@H](C)/C=C(\C)[C@@H](O)[C@@H](OC)C(=O)[C@H](C)C[C@H](C)/C=C/C=C/C=C/1C` [everolimus] + COc1cc(Nc2ncc(F)c(Nc3ccc4c(n3)NC(=O)C(C)(C)O4)n2)cc(OC)c1OC [Tamatinib] (first compound 0.02 µM, partner dose 0.4 µM) the “cleaved PARP positive nuclei fraction” value was 70.6%.
In the case of `CO[C@H]1C[C@@H]2CC[C@@H](C)[C@@](O)(O2)C(=O)C(=O)N2CCCC[C@H]2C(=O)O[C@H]([C@H](C)C[C@@H]2CC[C@@H](OCCO)[C@H](OC)C2)CC(=O)[C@H](C)/C=C(\C)[C@@H](O)[C@@H](OC)C(=O)[C@H](C)C[C@H](C)/C=C/C=C/C=C/1C` [everolimus] + CO[C@@H]1[C@H](N(C)C(=O)c2ccccc2)C[C@H]2O[C@]1(C)n1c3ccccc3c3c4c(c5c6ccccc6n2c5c31)C(=O)NC4 [Midostaurin] (first compound 0.02 µM, partner dose 0.08 µM), the “cleaved PARP positive nuclei fraction” value was 106%.
In the case of `CO[C@H]1C[C@@H]2CC[C@@H](C)[C@@](O)(O2)C(=O)C(=O)N2CCCC[C@H]2C(=O)O[C@H]([C@H](C)C[C@@H]2CC[C@@H](OCCO)[C@H](OC)C2)CC(=O)[C@H](C)/C=C(\C)[C@@H](O)[C@@H](OC)C(=O)[C@H](C)C[C@H](C)/C=C/C=C/C=C/1C` [everolimus] + CCN(CC)CCCCNc1ncc2cc(-c3cc(OC)cc(OC)c3)c(NC(=O)NC(C)(C)C)nc2n1 [PD173074] (first compound 0.02 µM, partner dose 0.1 µM), the “cleaved PARP positive nuclei fraction” value was 100%.
In the case of `CO[C@H]1C[C@@H]2CC[C@@H](C)[C@@](O)(O2)C(=O)C(=O)N2CCCC[C@H]2C(=O)O[C@H]([C@H](C)C[C@@H]2CC[C@@H](OCCO)[C@H](OC)C2)CC(=O)[C@H](C)/C=C(\C)[C@@H](O)[C@@H](OC)C(=O)[C@H](C)C[C@H](C)/C=C/C=C/C=C/1C` [everolimus] + Cc1cc(N2CCOCC2)cc2[nH]c(-c3c(NC[C@@H](O)c4cccc(Cl)c4)cc[nH]c3=O)nc12 [BMS536924] (first compound 0.02 µM, partner dose 0.2 µM), the “cleaved PARP positive nuclei fraction” value was 54.1%.
With `CO[C@H]1C[C@@H]2CC[C@@H](C)[C@@](O)(O2)C(=O)C(=O)N2CCCC[C@H]2C(=O)O[C@H]([C@H](C)C[C@@H]2CC[C@@H](OCCO)[C@H](OC)C2)CC(=O)[C@H](C)/C=C(\C)[C@@H](O)[C@@H](OC)C(=O)[C@H](C)C[C@H](C)/C=C/C=C/C=C/1C` [everolimus] + Cn1cc(/C=C2\C(=O)Nc3cccnc32)c2ccccc21 [GW441756] (first compound 0.02 µM, partner dose 0.4 µM) the “cleaved PARP positive nuclei fraction” value was 159%.
For `CO[C@H]1C[C@@H]2CC[C@@H](C)[C@@](O)(O2)C(=O)C(=O)N2CCCC[C@H]2C(=O)O[C@H]([C@H](C)C[C@@H]2CC[C@@H](OCCO)[C@H](OC)C2)CC(=O)[C@H](C)/C=C(\C)[C@@H](O)[C@@H](OC)C(=O)[C@H](C)C[C@H](C)/C=C/C=C/C=C/1C` [everolimus] + Cn1c(Nc2ccc(C(F)(F)F)cc2)nc2cc(Oc3ccnc(-c4ncc(C(F)(F)F)[nH]4)c3)ccc21 [CHIR265] (first compound 0.02 µM, partner dose 0.08 µM), the “cleaved PARP positive nuclei fraction” value was 141%.
`CO[C@H]1C[C@@H]2CC[C@@H](C)[C@@](O)(O2)C(=O)C(=O)N2CCCC[C@H]2C(=O)O[C@H]([C@H](C)C[C@@H]2CC[C@@H](OCCO)[C@H](OC)C2)CC(=O)[C@H](C)/C=C(\C)[C@@H](O)[C@@H](OC)C(=O)[C@H](C)C[C@H](C)/C=C/C=C/C=C/1C` [everolimus] + COc1cc2ncnc(Nc3ccc(Oc4ccccc4)cc3)c2cc1OC [SrcI1] (first compound 0.02 µM, partner dose 2 µM) was tested, and the “cleaved PARP positive nuclei fraction” value was 29.8%.
With `CO[C@H]1C[C@@H]2CC[C@@H](C)[C@@](O)(O2)C(=O)C(=O)N2CCCC[C@H]2C(=O)O[C@H]([C@H](C)C[C@@H]2CC[C@@H](OCCO)[C@H](OC)C2)CC(=O)[C@H](C)/C=C(\C)[C@@H](O)[C@@H](OC)C(=O)[C@H](C)C[C@H](C)/C=C/C=C/C=C/1C` [everolimus] + CN(NC(=O)CC(=O)NN(C)C(=S)c1ccccc1)C(=S)c1ccccc1 [STA4783] (first compound 0.02 µM, partner dose 0.006 µM) the “cleaved PARP positive nuclei fraction” value was 103%.
In the case of `CO[C@H]1C[C@@H]2CC[C@@H](C)[C@@](O)(O2)C(=O)C(=O)N2CCCC[C@H]2C(=O)O[C@H]([C@H](C)C[C@@H]2CC[C@@H](OCCO)[C@H](OC)C2)CC(=O)[C@H](C)/C=C(\C)[C@@H](O)[C@@H](OC)C(=O)[C@H](C)C[C@H](C)/C=C/C=C/C=C/1C` [everolimus] + CCCCCCCCCCCC1=C(O)C(=O)C=C(O)C1=O [Embelin] (first compound 0.02 µM, partner dose 1.2 µM), the “cleaved PARP positive nuclei fraction” value was 26%.
With `CO[C@H]1C[C@@H]2CC[C@@H](C)[C@@](O)(O2)C(=O)C(=O)N2CCCC[C@H]2C(=O)O[C@H]([C@H](C)C[C@@H]2CC[C@@H](OCCO)[C@H](OC)C2)CC(=O)[C@H](C)/C=C(\C)[C@@H](O)[C@@H](OC)C(=O)[C@H](C)C[C@H](C)/C=C/C=C/C=C/1C` [everolimus] + COC(=O)c1sccc1S(=O)(=O)Nc1ccc(Nc2ccccc2)cc1OC [GSK0660] (first compound 0.02 µM, partner dose 1 µM) the “cleaved PARP positive nuclei fraction” value was 108%.
